Data source: PubChem BioAssay AID504804 (Drosophila RNAi Screening Center, 2011)
The deposit covers about 19,000 reagents; this is a random part of those with a known target gene and a result. Over the whole deposit, 47 (0.25%) are marked active. 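Signals are raw, not normalised; exact z-scores behind calls not deposited; actives needed confirmation, so some wells reaching 2 SD are inactive.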 Unmarked entries are inactive. The numbers tell different reagents against one gene apart.

Assay: 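dsRNAs that improve Kc cell survival under doxorubicin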 (primary screen)
Cell system: Drosophila Kc cells
Reagent: long dsRNA against Drosophila genes, 0.5 µg dsRNA per well
Duration: 96 h (48 h knock-down, then 48 h drug)
Conditions: doxorubicin 5 µg/ml for 48 h, added 48 h after dsRNA
Measured: 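Viability measured as cellular ATP by luminescence after 48 h knock-down then 48 h doxorubicin at 5 µg/ml; unnormalised plate counts for each replicate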
Scale: raw ATP luminescence: higher = more viable cells, protection from doxorubicin
Active means: 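Active when both duplicate wells lie at least 2 SD above the plate mean and protection is confirmed by rescreening and independent dsRNAs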

CG3663 → raw ATP luminescence, replicate 1: 50873; raw ATP luminescence, replicate 2: 52857
Spt (Spitting Image) → raw ATP luminescence, replicate 1: 37620; raw ATP luminescence, replicate 2: 1.31e5
mRpL39 (mitochondrial ribosomal protein L39) → raw ATP luminescence, replicate 1: 79520; raw ATP luminescence, replicate 2: 66587
CG3345 → raw ATP luminescence, replicate 1: 1.04e5; raw ATP luminescence, replicate 2: 65757
loh (lonely heart) #1 → raw ATP luminescence, replicate 1: 2.95e5; raw ATP luminescence, replicate 2: 2.83e5
loh (lonely heart) #2 → raw ATP luminescence, replicate 1: 29840; raw ATP luminescence, replicate 2: 73297
mia (meiosis I arrest) → raw ATP luminescence, replicate 1: 64493; raw ATP luminescence, replicate 2: 20890
tsh (teashirt) → raw ATP luminescence, replicate 1: 52770; raw ATP luminescence, replicate 2: 60207
CG7910 → raw ATP luminescence, replicate 1: 47193; raw ATP luminescence, replicate 2: 43367
Set1 (SET domain containing 1) #1 → raw ATP luminescence, replicate 1: 2.21e5; raw ATP luminescence, replicate 2: 2.02e5
Set1 (SET domain containing 1) #2 → raw ATP luminescence, replicate 1: 2.42e5; raw ATP luminescence, replicate 2: 1.99e5
RacGAP84C (Rac GTPase activating protein at 84C) → raw ATP luminescence, replicate 1: 66177; raw ATP luminescence, replicate 2: 58903
CG12684 → raw ATP luminescence, replicate 1: 34960; raw ATP luminescence, replicate 2: 53210
CG7252 → raw ATP luminescence, replicate 1: 34893; raw ATP luminescence, replicate 2: 42010
Nup44A (Nucleoporin at 44A) → raw ATP luminescence, replicate 1: 60450; raw ATP luminescence, replicate 2: 45753
CAH6 (Carbonic anhydrase 6) → raw ATP luminescence, replicate 1: 62760; raw ATP luminescence, replicate 2: 78130
Sas10 (Something about silencing 10) → raw ATP luminescence, replicate 1: 37770; raw ATP luminescence, replicate 2: 44630
Gpat4 (Glycerol-3-phosphate acyltransferase 4) → raw ATP luminescence, replicate 1: 50957; raw ATP luminescence, replicate 2: 55330

Next part, starting with the last 2 of the part before.
Sas10 (Something about silencing 10) → raw ATP luminescence, replicate 1: 37770; raw ATP luminescence, replicate 2: 44630
Gpat4 (Glycerol-3-phosphate acyltransferase 4) → raw ATP luminescence, replicate 1: 50957; raw ATP luminescence, replicate 2: 55330
nullo → raw ATP luminescence, replicate 1: 44340; raw ATP luminescence, replicate 2: 46670
Rh6 (Rhodopsin 6) → raw ATP luminescence, replicate 1: 87010; raw ATP luminescence, replicate 2: 58760
CG7739 → raw ATP luminescence, replicate 1: 70257; raw ATP luminescence, replicate 2: 79357
Cpr60D (Cuticular protein 60D) → raw ATP luminescence, replicate 1: 66110; raw ATP luminescence, replicate 2: 71413
CG13075 → raw ATP luminescence, replicate 1: 36403; raw ATP luminescence, replicate 2: 43027
CG4408 → raw ATP luminescence, replicate 1: 36917; raw ATP luminescence, replicate 2: 35630
Or45b (Odorant receptor 45b) → raw ATP luminescence, replicate 1: 33090; raw ATP luminescence, replicate 2: 69653
CG13005 → raw ATP luminescence, replicate 1: 3.35e5; raw ATP luminescence, replicate 2: 3.08e5
CG4477 → raw ATP luminescence, replicate 1: 64870; raw ATP luminescence, replicate 2: 61203
CG13786 → raw ATP luminescence, replicate 1: 30703; raw ATP luminescence, replicate 2: 27063
